# Test results taken from PubChem BioAssay AID1347426 (Functional Genomics Laboratory (NCATS/FGL), 2020).
# Hit rate of the full screen: of about 31,000 sequences, about 1,400 (4.5%) were called active.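 The calls were made as follows: active = median seed-adjusted z-score above 1 or below -1; inactive = the rest.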 Some of the results follow.
# Assay: Novel Modifiers of Survival Motor Neuron (SMN) Protein: Gene Identification via Genome-wide siRNA Screen;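 also: luminescence tracks full-length SMN protein made from the SMN2 reporter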
# Details: HEK293T SMN2-luciferase reporter, siRNA knockdown, 72 h; actives lie on both sides
# Summary of the method: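 HEK293T cells stably carrying an SMN2 promoter/splicing cassette–luciferase reporter were reverse-transfected with 1 pmol siRNA per well (druggable-genome library, 3 siRNAs per gene) and grown 72 h at 37 °C. Luminescence, normalized to negative-control siRNA and log10-transformed, was scored as MAD.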
row,Sequence,median seed-adjusted z-score
1,CCUUUUACCCGGAAGCUCATT against ABCA7,inactive: -0.711
2,GAAACGAUUAUAUAUGGAATT against FBXO11,inactive: 0.733
3,GCACUAACCUCUUUCGACATT against ZNF530,inactive: 0.0381
4,CCUCCACAACAGCUACUAUTT against CCNG2,inactive: -0.764
5,GACUAUAAUGUUAAAGCGATT against IFIT1L,inactive: 0.166
6,GGAAUUCUUUGGGAGUGGATT against DNAJB2,inactive: 0
7,CGCUUACUACCUUCAGUAUTT against SOD2,inactive: -0.558
8,CGAAAUACGUGGAACUCAUTT against ACE,inactive: 0.0874
9,CGAUCGAUGUCUUACAGCATT against ZDHHC5,inactive: -0.307
10,CCCUGAGAAUGAGAAUGCATT against PLXNA1,inactive: 0
11,GGCACUUUAUGCUUCAGAUTT against PDE7B,inactive: 0.0616
12,CCAGCAAGGAUGCAGCUAATT against CELSR3,inactive: 0
13,CCAUCUCUUUGGUAGUACUTT against TBC1D23,inactive: 0.0932
14,GCCCAUAUGUUGUAAAGUATT against STK3,inactive: 0.108
15,GCAACAACCAGUGUAUUCATT against TRIM3,inactive: -0.215
16,CCAGGUGUCAAGAAGCCUATT against CST2,inactive: -0.411
17,GAGUCCAAUUUGUCCAGCUTT against SIRT5,inactive: 0.39
18,CAGAUGCACGAGAAAUCCATT against APLNR,inactive: 0.794
19,AGAAGGUCAUCAAUACGGATT against SLC34A1,inactive: 0.139
20,CGACCUUGCAGAUUUUGAATT against FGL1,inactive: -0.259
21,CGAAAUGAUCGAAAACUGUTT against GPR37,inactive: -0.0447
22,CUACAACUGUCACCGUUAATT against DSC1,inactive: -0.151

row,Sequence,median seed-adjusted z-score
1,GAGUUAUCAUAGGUCAGAATT against HSD17B4,inactive: 0
2,GAAAUGGACCAGACACUAATT against POU2F2,inactive: 0.163
3,CCUAUUCUGGAGGCAAUAATT against USP38,inactive: 0.216
4,GGAAAUGCGUGAAGCUUUUTT against CHIA,inactive: 0.479
5,GCAAGGUCCACACCCAAAATT against NPFF,inactive: -0.631
6,GCUCGGUCUGGUGAACUAATT against KLF3,inactive: 0.628
7,GGAUACUCUUCCUAUUCAATT against OMA1,inactive: 0
8,ACCCUUUGCUCAAUAAACATT against ZNF580,inactive: 0.437
9,GACAAUCAAUUCACAUUUUTT against PKIG,inactive: 0.0916
10,GGAUUCAUCUGGGAUAAAATT against F8,inactive: -0.0992
11,CAGAACCUGUUGUAGAAAATT against GSPT2,inactive: 0.846
12,GGGCUGGACCAACUCAACATT against B4GALNT1,inactive: 0.0265
13,GAAUGCCUGCGGAACAAGATT against NLGN4X,inactive: -0.1
14,CAGCUCAUCGAAGACUAUATT against GPN2,inactive: 0
15,GGAGCACCGUUAAGGACAATT against APOC3,inactive: 0.185
16,CCAGGUUGGUCUUCACAGATT against ONECUT1,inactive: -0.367
17,GAAGUACCGGAGGAAUUUATT against ACSM1,inactive: 0.658
18,GGUCUCUCAGUGUCGAUUATT against ABCB11,inactive: 0.14
19,GCACCAUAGACUACCGAAATT against RBM15,inactive: -0.409
20,GGAUUACUCUUUUGGUGCATT against IRF5,inactive: -0.146
21,CUCUAGAAUUUGGAUAAUATT against BATF3,inactive: 0.698
22,CAGCAAACAUGUUCAAAAUTT against NAPA,inactive: -0.563

row,Sequence,median seed-adjusted z-score
1,CCCUGGCAGCUAGUAGGUUTT against BATF3,inactive: 0.698
2,GGCCUCCAUUUGUACCGAATT against SOD3,inactive: -0.0691
3,GAAAAGUUAUUACCAUGUATT against MARCKS,inactive: 0.379
4,CGCUGGACGUGUCAGACAATT against MATN1,inactive: -0.271
5,UGCCCUUGUUUGUCCAACATT against USP18,inactive: -0.326
6,GAACGGGACACUUUGCUAATT against INDO,inactive: 0.0511
7,GGAGACAAGCACAAGCUGATT against S100B,inactive: 0.862
8,GCGUAUCCGAGAACCACAATT against CDH15,inactive: 0
9,CUGAGAAGCUUAUCCGAGATT against 4-Sep,inactive: -0.0124
10,CCACCUAAUGAGUCCAAUUTT against TTLL7,inactive: 0.00109
11,CGACUCCGAGGAAAGCAAATT against HMX3,inactive: 0.238
12,CCUGGUUGCUAACGACAAATT against PASK,inactive: 0
13,GCACCUUCUCAAGCCGAAATT against RPA2,inactive: -0.0957
14,GGAGAUCUCAUUCUACAGATT against TJP3,inactive: -0.183
15,AGAUCUCCGCCUCGAGAAATT against TNNI3,inactive: 0.516
16,CAUCUACUGUCAUUAACCATT against ITIH5,inactive: -0.289
17,CUAUAAUCCUACUAGUAAATT against MAN2A2,inactive: -0.0938
18,CCAGCACAACUCUGAGAUATT against CYP2E1,inactive: 0.81
19,GAUUCUUGGUAUCCGAUUUTT against ZFP161,inactive: 0.154
20,CCGGUGUUUCGGUACCAAATT against LHX1,inactive: 0
21,GGAUCGGUAUAGACGGAGATT against RBM23,inactive: 0.14
22,UGAGAGAUCCUUUCCUGAATT against FUT1,inactive: 0.000845

# Individual results from the list:
# Entry of GCGUAUCCGAGAACCACAATT against CDH15 under median seed-adjusted z-score: inactive: 0
# Entry of GCACCUUCUCAAGCCGAAATT against RPA2 under median seed-adjusted z-score: inactive: -0.0957
# Entry of CCACCUAAUGAGUCCAAUUTT against TTLL7 under median seed-adjusted z-score: inactive: 0.00109
# Entry of CCAGCACAACUCUGAGAUATT against CYP2E1 under median seed-adjusted z-score: inactive: 0.81
# Entry of GGCCUCCAUUUGUACCGAATT against SOD3 under median seed-adjusted z-score: inactive: -0.0691
# Entry of GGAUCGGUAUAGACGGAGATT against RBM23 under median seed-adjusted z-score: inactive: 0.14

# Next part

row,Sequence,median seed-adjusted z-score
1,CAGAAGGAAUUAGAUGGAATT against COX8C,inactive: -0.0513
2,AGUCCAAGGUGAUUACGCUTT against CPSF1,active: 3.29
3,CAAACGACCUUUGCCCAAATT against MED17,active: -2.06
4,AUAUGUAAGAUACAAAGAATT against HPDL,inactive: 0.483
5,UCCUCAGAUUCGAAGCUGATT against SEMA4B,inactive: 0.185
6,GGAUGAAAUAGAUAGCAUUTT against SCO1,inactive: -0.251
7,GCGAGUUUCAGAAUUUACATT against SNX25,inactive: -0.26
8,GGAUGCAGGUAUUUGGAAATT against CACNA1E,inactive: 0.285
9,CCUUCAAUGUGAUCCGCCUTT against HSD17B10,inactive: -0.355
10,GAAAAUCCGUUCUAAAGUATT against ITGB3,inactive: 0.456
11,GCAAAUAUAUCGAGAACCATT against ENPP7,inactive: -0.478
12,CCAUCAGACAAGUCCCUGUTT against MAP1S,inactive: 0.0941
13,GGUCCAAUUUGUAAUUGAUTT against GRM8,inactive: 0.129
14,GACGUGUGCUAACAACAGATT against NID1,inactive: 0.761
15,CCUACGAAAUGUGCCUCAATT against FBXO6,inactive: 0.0361
16,CGAGGAUUCCUAUUUAGCUTT against GCNT1,inactive: 0.463
17,CCGCGAAGAUGUUAGCAUUTT against PRSS12,inactive: 0.119
18,GGAAUGUAAAUGCCUCUUUTT against EIF4E3,inactive: 0
19,GGACUUGCUCGGCUCUAUATT against CRKRS,active: -1.16
20,UCAUCCUCAUCAACCAGUATT against ATP6V1F,inactive: -0.428
21,GAAAAAUACUGGUUGUACATT against NUDT6,inactive: 0.281
22,GAAUUAAUGAUACCAGCAATT against GPR111,inactive: 0

row,Sequence,median seed-adjusted z-score
1,GCAAUUUCCAGGUAUUGAATT against MCTS1,inactive: 0.116
2,GGCUUGAUGGUAAUCAGUATT against SIRT1,inactive: 0
3,GGAUGCUGCUGAGAACUAUTT against PIK3R3,active: -1.88
4,ACCCUACCAGUGUAUCAUATT against ZNF684,inactive: 0.189
5,GUAUUAACAUUGUUUCGAUTT against ABCB4,inactive: 0
6,GCAAGUUUGACAACCUCUATT against AHCY,inactive: -0.189
7,ACAUUUCAGUGGAUAAUUUTT against GNG4,inactive: -0.188
8,GUACUUUAAAGAUUGGAAUTT against LOC730394,inactive: -0.226
9,GGCUUUGCCUGAGCACAGATT against GJA4,inactive: -0.18
10,ACCUGUUCGUCUCCACCAATT against APBA3,inactive: -0.119
11,AGAAGAGAUAUGUUGCAUATT against TPTE,inactive: 0.213
12,GCAAUGGACGAAGACCUUUTT against PSMA8,inactive: 0.407
13,GAACCCAAGGGAUCCACUATT against FEN1,inactive: -0.316
14,GGAGGGUCGUCUCAAGUAUTT against YWHAZ,inactive: 0.721
15,CAAGGAUAUAUCAAACUAUTT against MMP8,inactive: -0.781
16,CGCCGACUGUCAUGCUUCATT against FCN1,inactive: 0.346
17,GAUCCUAAAGAAAACUCUATT against TRHR,inactive: -0.873
18,AGCUUGCACUGCACCGCAATT against ZNF672,inactive: 0.35
19,GUCUUGUCCCAGAACCUUUTT against RPN2,inactive: -0.217
20,CUUAAUUGGUUUACCCAAATT against NEK3,inactive: 0.118
